These are yes or no findings as the source states them, for the method shown. Some binding calls cover weakened binding; strength is not graded here.

Assay [1] addresses human Hsp103 (human) (UniProt P07900). Put plainly: SEC; chaperone and cochaperone at 2.5 µM, 10 min at 30°C following 10 min on ice, 40 mM Hepes-KOH pH 7.4, 50 mM KCl, 2 mM Mg2Cl; Superdex 200 HR 10/30 in the same buffer; fractions analysed by SDS-PAGE (Western blot for Aha1 and Cdc37 in the Hsp103 runs); shift of the cochaperone to higher molecular mass; both purified. (In general: Size exclusion chromatography separates by hydrodynamic size, large species first.)

Assay [2] has as its target human Hsp90α (human) (UniProt P07900). The description is as above.

In the case of “human Aha1 (activator of Hsp90 ATPase) (from UniProt O95433 1-338)”, the binding result in assay [1] and in assay [2] was “binds weakly” each time.

The record behind these values is paper PMC3739785.
